Measurements as given in patent publication US20240156908A1, “USE OF sEphB4-HSA FUSION PROTEIN AS A FIRST-LINE THERAPY IN CANCER TREATMENT” (priority 2021, published 2024).
These are yes or no findings as the source states them, for the method shown. Binding seen in cells or lysates may run through a third protein. Some binding calls cover weakened binding; strength is not graded here.

The chains behind the UniProt entries cited, without tags or fusion partners. Where a name states a change or a piece, a line headed by the entry shows the natural chain unless it says otherwise.
UniProt Q9Y297: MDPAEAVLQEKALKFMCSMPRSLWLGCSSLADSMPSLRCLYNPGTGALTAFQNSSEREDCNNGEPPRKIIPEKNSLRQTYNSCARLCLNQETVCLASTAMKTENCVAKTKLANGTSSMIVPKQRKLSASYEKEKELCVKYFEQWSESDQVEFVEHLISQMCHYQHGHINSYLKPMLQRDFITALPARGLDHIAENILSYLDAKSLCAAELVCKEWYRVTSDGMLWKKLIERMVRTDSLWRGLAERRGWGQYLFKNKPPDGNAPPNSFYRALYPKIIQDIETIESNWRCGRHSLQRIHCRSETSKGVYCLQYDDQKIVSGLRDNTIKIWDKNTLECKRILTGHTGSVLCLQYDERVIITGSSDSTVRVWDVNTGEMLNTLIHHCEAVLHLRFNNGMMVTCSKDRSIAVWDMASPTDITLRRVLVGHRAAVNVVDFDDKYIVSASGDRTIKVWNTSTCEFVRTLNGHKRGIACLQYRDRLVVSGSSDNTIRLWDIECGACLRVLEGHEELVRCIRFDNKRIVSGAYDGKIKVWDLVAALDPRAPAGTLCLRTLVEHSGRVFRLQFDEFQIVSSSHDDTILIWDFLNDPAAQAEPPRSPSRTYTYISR
UniProt P54760: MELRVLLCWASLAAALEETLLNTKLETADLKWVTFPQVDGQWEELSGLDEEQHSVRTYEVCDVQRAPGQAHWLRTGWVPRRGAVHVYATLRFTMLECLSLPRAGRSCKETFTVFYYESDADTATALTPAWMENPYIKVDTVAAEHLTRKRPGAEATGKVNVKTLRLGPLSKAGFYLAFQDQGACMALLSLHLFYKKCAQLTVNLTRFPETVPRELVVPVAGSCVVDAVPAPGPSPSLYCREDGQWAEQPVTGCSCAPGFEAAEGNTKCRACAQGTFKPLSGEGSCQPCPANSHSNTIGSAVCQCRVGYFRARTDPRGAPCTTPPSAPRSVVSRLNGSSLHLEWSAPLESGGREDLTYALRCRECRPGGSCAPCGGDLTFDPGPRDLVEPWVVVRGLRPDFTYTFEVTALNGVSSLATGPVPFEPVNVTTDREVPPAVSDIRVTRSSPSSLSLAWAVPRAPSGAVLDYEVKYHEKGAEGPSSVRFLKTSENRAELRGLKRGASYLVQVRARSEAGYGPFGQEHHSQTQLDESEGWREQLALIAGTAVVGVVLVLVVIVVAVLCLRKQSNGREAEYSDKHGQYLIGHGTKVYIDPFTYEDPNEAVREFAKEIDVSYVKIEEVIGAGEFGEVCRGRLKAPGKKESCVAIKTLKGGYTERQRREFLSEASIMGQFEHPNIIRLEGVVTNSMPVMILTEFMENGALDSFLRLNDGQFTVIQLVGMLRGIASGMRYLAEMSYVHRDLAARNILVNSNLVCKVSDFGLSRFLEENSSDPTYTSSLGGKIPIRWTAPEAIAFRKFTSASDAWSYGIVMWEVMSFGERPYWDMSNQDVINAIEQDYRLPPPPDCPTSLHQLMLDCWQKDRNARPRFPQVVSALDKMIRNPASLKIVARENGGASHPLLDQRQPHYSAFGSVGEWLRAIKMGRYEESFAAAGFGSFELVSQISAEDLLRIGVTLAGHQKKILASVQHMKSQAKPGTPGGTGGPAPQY

Assays:
EGFR [1] = target: EGFR (UniProt P00533); assay: western blot analysis (co-IP), FIG. 12 legend
EGFR [2] = target: EGFR (UniProt P00533); assay: reciprocal co-immunoprecipitation and western blot of cell lysates
[3] = target: 8-transducing repeat containing protein 1 (8-TrCP1), F-box family E3 ligase (UniProt Q9Y297); assay: co-immunoprecipitation between EphB4 and 8-TrCP1 (FIG. 19F, middle panels)

Measured: binding

EphB4 (receptor tyrosine kinase EphB4, full length) (from UniProt P54760 16-987)
binds: all assays above
